Data as given in PubChem BioAssay AID686938 (Drosophila RNAi Screening Center, 2013)
The screen tested about 23,000 reagents; this is an unselected part of those that have a named target and a result. Of all reagents, 75 (0.33%) are marked active. 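Raw plate signals without normalisation; calls rest on plate z-scores that were not deposited; ratio present for only 364 wells.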 A number with no mark means an inactive call. A plus sign joins genes that one reagent is predicted to hit. Not stated in the record: the dose of the treatment.

- Purpose: 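Knock-downs reducing store-operated calcium influx in Drosophila cells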 (primary screen)
- Cells: Drosophila S2R+ cells
- Reagent: long dsRNA against Drosophila genes, about 0.25 µg dsRNA per well, roughly 10,000 cells
- Time to read-out: 5 days of knock-down before the calcium assay
- Treatment: thapsigargin (SERCA pump blocker) to empty calcium stores; entry signal taken 4 min after adding it
- Detection: 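Duplicate raw fluo-4 intensities per well from a plate reader, at rest and four minutes after thapsigargin emptied calcium stores; entry-to-rest ratio filled for only some wells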
- Reading the numbers: calcium entry signal: higher = stronger calcium signal after store depletion; resting calcium signal: higher = higher resting calcium signal
- Call rule: 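Called when the plate z-score of the entry-to-rest ratio, mean of duplicates, falls below −3; wells with low overall dye signal (Fmax z below −2) or more than five off-targets excluded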
- Calls: active = strongly reduced calcium entry; inactive = no strong reduction

The first 5 entries, to show the layout:
no.	gene	dsRNA	calcium entry signal, replicate 1 (fluorescence units)	calcium entry signal, replicate 2 (fluorescence units)	resting calcium signal, replicate 1 (fluorescence units)	resting calcium signal, replicate 2 (fluorescence units)
1	CG14377 (GeneID 41649)	DRSC14837	3.11e7	3.75e7	1.53e7	6.48e7
2	trh (GeneID 38065)	DRSC08355	4.05e7	4.39e7	2.20e7	2.06e7
3	trh (GeneID 38065)	DRSC08739	4.21e7	4.36e7	2.15e7	2.04e7
4	ex (GeneID 33218)	DRSC00817	4.03e7		2.39e7	
5	ncm (GeneID 35099)	DRSC02179	1.04e7 (active)		8.21e6	

Main list, from the first entry:
no.	gene	dsRNA	calcium entry signal, replicate 1 (fluorescence units)	calcium entry signal, replicate 2 (fluorescence units)	resting calcium signal, replicate 1 (fluorescence units)	resting calcium signal, replicate 2 (fluorescence units)
1	CG14377 (GeneID 41649)	DRSC14837	3.11e7	3.75e7	1.53e7	6.48e7
2	trh (GeneID 38065)	DRSC08355	4.05e7	4.39e7	2.20e7	2.06e7
3	trh (GeneID 38065)	DRSC08739	4.21e7	4.36e7	2.15e7	2.04e7
4	ex (GeneID 33218)	DRSC00817	4.03e7		2.39e7	
5	ncm (GeneID 35099)	DRSC02179	1.04e7 (active)		8.21e6	
6	CG7611 (GeneID 40386)	DRSC11840	2.41e7	3.01e7	1.09e7	1.56e7
7	lncRNA:CR42862 (GeneID 10178964)	DRSC08348	4.43e7	4.02e7	1.99e7	2.01e7
8	CG2267 (GeneID 43639)	DRSC15435	4.36e7	4.63e7	2.19e7	2.08e7
9	meng (GeneID 33948)	DRSC02134	2.61e7	2.78e7	1.22e7	1.20e7
10	CG30411 (GeneID 246600)	DRSC04004	2.18e7	3.26e7	1.12e7	1.44e7
11	RpS14b (GeneID 47219)	DRSC18711	7.88e6	5.80e6	6.19e6	5.19e6
12	vis + achi	DRSC07277	3.45e7	4.21e7	1.56e7	2.04e7
13	CG43254 (GeneID 12798054)	DRSC12638	3.46e7	4.56e7	1.65e7	2.17e7
14	cass (GeneID 35053)	DRSC01850	4.15e7		2.20e7	
15	Lcp2 (GeneID 35818)	DRSC07456	5.21e7	4.40e7	2.49e7	2.03e7
16	CG5555 (GeneID 42302)	DRSC15834	2.85e7	2.30e7	1.34e7	9.90e6
17	CG3776 (GeneID 37996)	DRSC04417	2.67e7		1.29e7	
18	CG12481 (GeneID 32364)	DRSC19461	2.77e7	3.59e7	1.49e7	1.47e7
19	CG32053 (GeneID 39178)	DRSC10683	3.67e7	2.76e7	2.55e7	1.14e7
20	Fad2 (GeneID 44006)	DRSC11165	1.97e7	2.59e7	1.34e7	1.54e7
21	Pka-R1 (GeneID 40305)	DRSC11674	4.34e7	4.46e7	1.97e7	3.09e7
22	Pka-R1 (GeneID 40305)	DRSC11875	4.28e7	4.70e7	1.83e7	2.92e7
23	Spt3 (GeneID 41461)	DRSC15465	2.64e7	3.20e7	1.40e7	1.61e7
24	Or98P (GeneID 3772262)	DRSC22948	3.10e7	4.01e7	1.42e7	1.70e7
25	CG8944 (GeneID 32517)	DRSC20128	3.88e7	5.47e7	1.75e7	2.93e7
26	CG8944 (GeneID 32517)	DRSC21342	2.55e7	3.77e7	1.29e7	1.56e7
27	CG11825 (GeneID 36099)	DRSC06090	4.84e7	4.50e7	2.24e7	2.04e7
28	CG11882 (GeneID 43446)	DRSC14425	2.98e7	3.11e7	1.56e7	1.48e7
29	CG14286 (GeneID 42280)	DRSC14767	3.54e7	3.19e7	3.81e7	1.32e7
30	CG6287 (GeneID 34554)	DRSC02947	4.79e7		2.04e7	
31	Osi8 (GeneID 40762)	DRSC12277	3.59e7	3.71e7	1.73e7	1.61e7
32	sqa (GeneID 36002)	DRSC06693	3.36e7	3.41e7	1.49e7	1.60e7
33	sqa (GeneID 36002)	DRSC21635	3.26e7	3.11e7	1.64e7	1.55e7
34	CG18507 (GeneID 34775)	DRSC01334	4.40e7	4.12e7	2.11e7	1.83e7
35	CG18507 (GeneID 34775)	DRSC01914	3.86e7	2.65e7	1.64e7	1.27e7
36	CG14036 (GeneID 33735)	DRSC02361	3.65e7	3.57e7	1.80e7	1.69e7
37	CG10600 (GeneID 35142)	DRSC02074	4.73e7		2.23e7	
38	Clic (GeneID 32349)	DRSC19364	2.15e7	3.28e7	1.21e7	1.51e7
39	CG14720 (GeneID 41415)	DRSC14942	4.28e7	3.89e7	1.97e7	2.02e7
40	CG13675 (GeneID 38907)	DRSC08908	2.18e7	3.15e7	1.40e7	1.41e7
41	CG13675 (GeneID 38907)	DRSC10034	2.13e7	1.96e7	1.27e7	1.19e7
42	CG13675 (GeneID 38907)	DRSC23124	5.23e7	3.22e7	2.36e7	1.44e7
43	Arpc4 (GeneID 33864)	DRSC02917	3.29e7	2.91e7	1.59e7	1.44e7
44	kkv (GeneID 45884)	DRSC12315	2.79e7	3.23e7	1.18e7	1.48e7
45	OtopLb (GeneID 33539)	DRSC00594	4.58e7		2.85e7	
46	Mdh1 (GeneID 34414)	DRSC02846	4.76e7	6.11e7	2.13e7	2.45e7
47	CG42544 (GeneID 8674002)	DRSC12451	2.96e7	4.43e7	1.57e7	2.18e7
48	CG43271 (GeneID 12798001)	DRSC01614	2.95e7	3.69e7	1.75e7	2.09e7
49	CG43271 (GeneID 12798001)	DRSC21741	3.15e7	3.71e7	1.68e7	1.68e7
50	Send1 (GeneID 33407)	DRSC00482	2.98e7	2.83e7	1.42e7	1.25e7
51	lncRNA:CR43314 (GeneID 12798160)	DRSC01216	4.30e7	5.57e7	1.91e7	2.49e7
52	lncRNA:CR43314 (GeneID 12798160)	DRSC21354	3.41e7	3.75e7	1.88e7	1.73e7
53	CG34210 (GeneID 5740490)	DRSC04579	3.63e7	3.69e7	2.03e7	1.78e7
54	Vsx1 (GeneID 31470)	DRSC18349	2.36e7	3.70e7	1.22e7	2.19e7
55	Vsx1 (GeneID 31470)	DRSC18350	2.02e7	2.93e7	1.11e7	1.57e7
56	Vsx1 (GeneID 31470)	DRSC23004	4.11e7	3.83e7	1.68e7	1.53e7
57	CG17486 (GeneID 3355138)	DRSC07752	4.06e7	3.49e7	1.76e7	1.72e7
58	CG4928 (GeneID 32682)	DRSC19342	2.88e7	2.58e7	1.39e7	1.26e7
